# Laboratory results from PubChem BioAssay AID758 (NMMLSC, 2007).
# In all, about 190,000 compounds went through this assay and about 110 (0.058%) were called active. The shares of active, inactive and inconclusive entries below differ from those in the screen.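 How the source made its calls: active means fluorescent GTP binding to Rab7 beads changed by at least 20 points from the 100% baseline, either direction, mostly lower; inconclusive means compound itself probably fluorescent, or too few beads counted; inactive means the rest.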
# Tested on: Rab7 GTPase wild type (dog), Bodipy-FL-GTP binding
# Experiment: modulators of GTP binding to Rab7, primary screen, biochemical, wildtype, multiplex bead flow cytometry (AID 758);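 further: median green fluorescence of bound Bodipy-FL-GTP per Rab7 bead population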
# Settings: GST-Rab7 beads, fluorescent GTP binding, at 10 µM, actives lie on both sides, untreated = 100%, excess cold GTP = 0%
row,SMILES,GTP binding activity (percent of control)
1,c1nc(NCCN2CCOCC2)c2sc3nc(N4CCOCC4)c4c(c3c2n1)CCC4,inconclusive: 94%
2,COc1ccc(CN=C2NN=C(c3ccccc3)CS2)cc1,inconclusive: 94%
3,Cc1cc(C)n(CC(=O)N/N=C/c2cc(Br)cc([N+](=O)[O-])c2O)n1,inconclusive: 87%
4,N#Cc1cc2c(=O)n3ccccc3nc2n(CCCN2CCOCC2)c1=O,inconclusive: 104%
5,Cc1ccc(S(=O)(=O)Nc2cccc(-c3ccc4nnc(C)n4n3)c2)s1,inactive: 100%
6,Cc1nn(Cc2cccc(C(=O)Nc3ccn(Cc4ccccc4)n3)c2)c(C)c1[N+](=O)[O-],inconclusive: 95%
7,CCC1CCc2c(n(C)c3ccccc3c2=O)O1 (centres undefined),inactive: 101%
8,COc1cc(NC(=O)c2cc3ccccc3o2)c(OC)cc1Br,inconclusive: 105%
9,Cc1cc(C(=O)OCC(=O)Nc2c(F)cccc2F)c(C)n1-c1ccccc1,inconclusive: 92%
10,Cc1cccc(NC(=O)NC(C)C(c2ccccc2)N2CCN(C)CC2)c1 (centres undefined),inactive: 108%
11,CCCCN1CN=C(Nc2nc3ccccc3o2)NC1,inconclusive: 106%
12,Fc1cccc(CSc2ccc3nnc(-c4cccnc4)n3n2)c1,inconclusive: 86%
13,CN(c1ccc(OCC(=O)NCc2cccnc2)cc1)S(=O)(=O)c1ccc(Cl)cc1,inactive: 105%
14,CCn1cc(C(=O)N2CC(C)CC(C)C2)c(=O)c2cc(S(=O)(=O)N3CCOCC3)ccc21 (centres undefined),inconclusive: 98%
15,N#CC1(NC(=O)CN2CCc3ccccc3C2)CCCC1,inactive: 96%
16,CCN(CC)c1ccc(/C=C2/SC(=O)N(C(C)C)C2=O)o1,inconclusive: 107%
17,C/C(CC(=O)Nc1cc(Cl)ccc1Cl)=N\NC(=O)c1ccccc1Br,inactive: 95%
18,CC(C)=CC(=O)OCC(=O)Nc1cc(C)ccc1C,inconclusive: 93%
19,Cc1cccc2cc(C#N)c(NCCNC(=O)NC3CCCCC3)nc12,inconclusive: 94%
20,CCCOC(=O)NC1CCS(=O)(=O)C1 (centres undefined),inconclusive: 17%
21,CC(=O)NC(Cc1cccc(F)c1)C(=O)NC1CCN(c2nnnn2-c2ccccc2)CC1 (centres undefined),inactive: 92%
22,O=C(Nc1ccccc1N1CCOCC1)c1cccs1,inconclusive: 96%
23,COc1ccc(C(=O)Nc2ccc3c(c2)Cc2ccccc2-3)cc1,inconclusive: 106%
24,CCc1c(C)sc(NC(=O)c2cnn3cccnc23)c1C#N,inconclusive: 96%

row,SMILES,GTP binding activity (percent of control)
1,CCOc1cc(C2Nc3ccccc3C(=O)N2c2ccccc2)ccc1O (centres undefined),inconclusive: 115%
2,Cc1n[nH]c(=S)c2nn(-c3ccccc3F)c(C)c12,inconclusive: 102%
3,COc1cc(N2CCCC2)c(OC)cc1/C=C(/C#N)c1cccc(F)c1,inconclusive: 147%
4,O=C(c1cc2nc(-c3ccc(Cl)cc3)cc(C(F)(F)F)n2n1)N1CCOCC1,inactive: 95%
5,O=C(C[n+]1ccccc1)N/N=C/c1ccc(F)cc1,inactive: 102%
6,COc1cccc(NC(=O)c2ccc3c(SCC(=O)O)c4c(nc3c2)CCCC4)c1,inconclusive: 82%
7,CCOC(=O)C1(Cc2ccccc2C(F)(F)F)CCN(C2CCN(C(C)C)CC2)CC1,inactive: 97%
8,Cc1ccc(Nc2cnn(C34CC5CC(CC(CC(=O)O)(C5)C3)C4)c(=O)c2Cl)c(Cl)c1,inactive: 95%
9,Cc1c(C(c2ccccc2O)c2c(C)n(C)n(-c3ccccc3)c2=O)c(=O)n(-c2ccccc2)n1C,inconclusive: 93%
10,Cc1ccc(N2C(=O)CC(Sc3ccccc3C(=O)O)C2=O)cc1C (centres undefined),inactive: 93%
11,CC(C)(C)NC(=O)CSc1nc(N)c(-c2ccccc2)c(=O)[nH]1,inconclusive: 98%
12,CCOC(=O)c1cnc(-n2[nH]c(C)cc2=O)[nH]c1=O,inconclusive: 95%
13,O=C(CCNC(=O)c1ccccc1)N=Nc1c(O)[nH]c2ccccc12,inconclusive: 94%
14,O=C(CCCCn1c(=S)[nH]c2ccsc2c1=O)NCc1ccc2c(c1)OCO2,inconclusive: 93%
15,Cc1csc(N(C(=O)Cc2ccccc2F)c2ccccc2)n1,inconclusive: 100%
16,COc1ccc(/C=C/c2nc3cc(-c4ccccc4)ccc3o2)cc1O,inconclusive: 98%
17,COc1ccc(NC(=O)CSc2nnc(C3CC3)n2N)cc1,inconclusive: 106%
18,COc1cc(NC(=O)C2CCN(S(=O)(=O)c3cnc[nH]3)CC2)cc(OC)c1OC,inconclusive: 103%
19,COC(=O)CSc1ccc2nnc(-c3ccc(F)cc3)n2n1,inconclusive: 108%
20,O=C(CCC(=O)N(CC(=O)NC1CCCC1)Cc1cccs1)Nc1nccs1,inactive: 97%
21,Cc1nn(-c2ccc(F)cc2)c(Cl)c1/C=C(\CCC(=O)O)c1nc2ccccc2s1,active: 79%
22,COc1cccc(-c2cc(C(F)(F)F)nc(-n3ccc([N+](=O)[O-])n3)n2)c1,inconclusive: 91%
23,O=C(O)c1cccc(NC(=S)N/N=C/c2cccc(O)c2)c1,inconclusive: 88%
24,CCOCC(=O)Nc1nnc(C2CCCCC2)s1,inconclusive: 102%

row,SMILES,GTP binding activity (percent of control)
1,Cn1c(N)c(C(=O)NCc2ccccc2)sc1=S,inconclusive: 100%
2,COc1ccc(/C=C/CN2CCCC(CO)(Cc3cccc(Cl)c3)C2)cc1 (centres undefined),inactive: 97%
3,O=C(CN1CCOCC1)Nc1ccccc1NC(=O)C1CCN(c2ncccn2)CC1,inconclusive: 98%
4,c1ccc(CNC2=NCCC2)nc1,inconclusive: 103%
5,Cc1cc(C)c(S(C)(=O)=O)c(Oc2ccc(C(C)(C)C)cc2)n1,inactive: 103%
6,Cc1occc1C(=O)NCc1ccccn1,inconclusive: 97%
7,COC(=O)c1c(NC(=O)/C=C/C(=O)O)sc(C)c1-c1ccc(C)c(C)c1,inconclusive: 96%
8,O=C(NNC(=S)NCc1ccc(Cl)cc1)c1ccc(Br)o1,inactive: 96%
9,Cc1nn(Cc2ccccc2Cl)c(Cl)c1C(=O)NCCc1ccccc1,inconclusive: 101%
10,CCCc1cc(=O)oc2cc(C)cc(OC(=O)c3ccco3)c12,inconclusive: 95%
11,COC(=O)NCc1ccc(CNC(=O)OC)cc1,inconclusive: 104%
12,CC(=O)OC(C(=O)NC1CCCCC1)c1ccc(Cl)c(Cl)c1 (centres undefined),active: 22%
13,CC1CCN(c2ncccc2C(=O)O)CC1,active: 125% [activator]
14,CN1C(=O)NC(c2ccc(O)cc2)C2=C1CN(c1cccc3ccccc13)C2=O (centres undefined),inconclusive: 95%
15,COC(=O)C(=C/C(C)=C/c1cccnc1)C(=O)OC,inactive: 99%
16,CC(C)(C)NC(=O)C1CCN(S(=O)(=O)c2cccc(C(F)(F)F)c2)CC1,inactive: 100%
17,CCOCCOC(NC(=O)c1ccccc1)(C(F)(F)F)C(F)(F)F,inactive: 104%
18,C=CCNC(=O)COC(=O)c1ccc(C)c(NC(=O)c2ccco2)c1,inconclusive: 92%
19,CC(Nc1cc(N2CCN(S(=O)(=O)N(C)C)CC2)ccc1[N+](=O)[O-])c1ccccc1 (centres undefined),inconclusive: 96%
20,Cc1ccc(Nc2nc(N)c(C#N)c(CC#N)c2C#N)cc1,inconclusive: 59%
21,O=C(NC(NC(=S)Nc1ccccc1C(=O)O)C(Cl)(Cl)Cl)c1ccco1 (centres undefined),inconclusive: 90%
22,CCN(CC)CCCN(Cc1cc2cc(OC)c(OC)cc2[nH]c1=O)C(=O)Nc1ccccc1,inconclusive: 100%
23,CCOc1nnc(C)c2c(C)n(-c3cccc(Cl)c3)nc12,inconclusive: 147%
24,COc1ccc(/C=C/C(=O)NC(=S)Nc2cc3oc4ccccc4c3cc2OC)cc1,inconclusive: 101%

row,SMILES,GTP binding activity (percent of control)
1,Cc1cc2cc(C)c(NCCNC(=O)c3ccccc3Cl)nc2cc1C,inconclusive: 92%
2,COC(=O)c1c(NC(=O)C2CC2)sc(C(=O)Nc2ccccc2)c1C,inconclusive: 94%
3,Cc1cccc(C)c1NC(=S)NC(C)CCc1ccccc1 (centres undefined),inactive: 100%
4,Cc1cc(C)cc(N(CC(=O)NCCSc2ccccn2)S(=O)(=O)c2ccccc2)c1,inconclusive: 101%
5,C=CCNC(=S)N/N=C/c1ccc(OCc2ccccc2Cl)cc1,inactive: 98%
6,CCOc1ccccc1CNCc1ccc(F)cc1,inactive: 105%
7,CCOC(=O)N1CCC2(CC1)C(C#N)=C(N)OC1=C2C(=O)CC(C)C1 (centres undefined),inconclusive: 94%
8,O=C1N/C(=C/c2ccc(N3CCOCC3)o2)C(=O)N1c1cccc(Cl)c1,inactive: 106%
9,CCN=C1S/C(=C\c2cn(CC)c3ccccc23)C(=O)N1CC,inactive: 103%
10,CC(C)CNC(=O)C(=O)NCc1ccccc1,inactive: 93%
11,Cc1ccc(O)c(C(=O)c2cnn(C(=O)Cc3csc(C)n3)c2)c1,active: 79%
12,O=C(COc1ccccc1C(=O)N/N=C\c1ccc(O)c(O)c1)N/N=C/c1ccc(O)c(O)c1,inconclusive: 87%
13,COc1ccc(NC(=O)C2CCCN2S(=O)(=O)c2ccc3c(c2)CCC(=O)N3)cc1 (centres undefined),inconclusive: 98%
14,OC(COc1ccc2ccccc2c1)Cn1ccnc1 (centres undefined),inactive: 97%
15,O=C(CC(=O)c1ccccc1)Nc1ccc2c(c1)OCCO2,inconclusive: 102%
16,Cc1ccc(-c2ccnc3nc(-n4cccc4)nn23)o1,inactive: 94%
17,CC(=O)c1ccc(NC(=S)Nc2cccc(Cl)c2C)cc1,inconclusive: 97%
18,c1cncc(-c2nnc(C3CCCCC3)o2)c1,inconclusive: 102%
19,COCc1c(Br)c(C)nc(OCC(=O)N/N=C/c2cc(C)n(-c3ccc([N+](=O)[O-])cc3)c2C)c1C#N,inactive: 98%
20,COc1ccc(-c2cc(=O)c3c(OC)c(OC)c(OC)c(OC)c3o2)cc1OC,inconclusive: 96%
21,CN=c1scc(-c2ccccc2F)n1/N=C(\C)c1cccnc1,inactive: 92%
22,COc1ccc(CCn2c(SCCN3CCCCC3)nc3ccccc3c2=O)cc1OC,inactive: 90%

# 5 entries already listed, ordered by heavy-atom count, rising:
row,SMILES,GTP binding activity (percent of control)
6,CCOc1ccccc1CNCc1ccc(F)cc1,inactive: 105%
3,Cc1cccc(C)c1NC(=S)NC(C)CCc1ccccc1 (centres undefined),inactive: 100%
7,CCOC(=O)N1CCC2(CC1)C(C#N)=C(N)OC1=C2C(=O)CC(C)C1 (centres undefined),inconclusive: 94%
1,Cc1cc2cc(C)c(NCCNC(=O)c3ccccc3Cl)nc2cc1C,inconclusive: 92%
22,COc1ccc(CCn2c(SCCN3CCCCC3)nc3ccccc3c2=O)cc1OC,inactive: 90%
